Measurements reported in PMC10331961.
For at least one entry, the source does not settle the construct or the ends of the probe. At least one result comes from cells or an extract, where the contact may be indirect.

Amino acid sequences for entries named in this document (tags omitted). Residues count along the entry.
UniProt P42224, 1-746: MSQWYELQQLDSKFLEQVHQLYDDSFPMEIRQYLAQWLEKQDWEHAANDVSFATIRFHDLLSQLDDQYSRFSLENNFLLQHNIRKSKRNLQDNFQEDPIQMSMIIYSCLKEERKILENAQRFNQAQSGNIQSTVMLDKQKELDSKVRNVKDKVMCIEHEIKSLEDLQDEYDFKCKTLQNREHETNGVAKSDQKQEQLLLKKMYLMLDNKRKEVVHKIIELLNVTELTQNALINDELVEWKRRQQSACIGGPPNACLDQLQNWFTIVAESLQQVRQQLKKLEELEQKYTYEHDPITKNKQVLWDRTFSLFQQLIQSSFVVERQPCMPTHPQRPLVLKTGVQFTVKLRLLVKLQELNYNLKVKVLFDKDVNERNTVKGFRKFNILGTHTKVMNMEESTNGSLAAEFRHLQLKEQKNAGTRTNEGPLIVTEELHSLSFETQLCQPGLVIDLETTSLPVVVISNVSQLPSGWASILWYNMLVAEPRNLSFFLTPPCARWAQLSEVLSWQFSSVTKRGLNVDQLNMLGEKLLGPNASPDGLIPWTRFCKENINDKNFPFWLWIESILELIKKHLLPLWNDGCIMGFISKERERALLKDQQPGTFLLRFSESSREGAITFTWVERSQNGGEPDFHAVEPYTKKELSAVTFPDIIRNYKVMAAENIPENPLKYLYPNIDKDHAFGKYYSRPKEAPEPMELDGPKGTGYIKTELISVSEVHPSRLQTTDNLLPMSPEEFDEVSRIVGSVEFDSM
UniProt P42224, 1-746 E169A: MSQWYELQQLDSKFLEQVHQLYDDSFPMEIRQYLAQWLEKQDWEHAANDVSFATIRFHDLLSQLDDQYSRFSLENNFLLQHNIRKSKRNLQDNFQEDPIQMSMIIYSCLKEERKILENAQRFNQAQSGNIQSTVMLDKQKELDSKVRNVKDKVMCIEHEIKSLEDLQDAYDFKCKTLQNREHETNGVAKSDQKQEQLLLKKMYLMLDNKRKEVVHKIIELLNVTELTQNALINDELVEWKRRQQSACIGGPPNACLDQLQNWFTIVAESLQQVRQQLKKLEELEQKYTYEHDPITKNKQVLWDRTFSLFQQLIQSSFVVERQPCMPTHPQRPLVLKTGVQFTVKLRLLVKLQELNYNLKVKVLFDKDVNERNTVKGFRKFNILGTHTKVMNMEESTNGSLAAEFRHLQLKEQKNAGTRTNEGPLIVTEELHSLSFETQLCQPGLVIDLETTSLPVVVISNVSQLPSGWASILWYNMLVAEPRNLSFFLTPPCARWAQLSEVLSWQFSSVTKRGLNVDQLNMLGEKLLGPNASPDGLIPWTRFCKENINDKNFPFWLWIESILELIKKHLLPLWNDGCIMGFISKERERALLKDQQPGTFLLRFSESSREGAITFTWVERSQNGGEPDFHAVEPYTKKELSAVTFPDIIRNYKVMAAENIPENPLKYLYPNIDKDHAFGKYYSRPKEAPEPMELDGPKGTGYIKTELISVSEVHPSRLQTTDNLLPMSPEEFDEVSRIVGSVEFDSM

Columns and labels:
Experiment in all cases: EMSA
[1] = biological target: STAT1alpha WT untagged (human) (UniProt P42224); details: IFNg 45 min, less complex than E169A; 4.5 ul whole cell extract + 8.5 ul reaction buffer (composition not given) with 1 ng 33P probe, 5 min on ice (30 min before competition); 4.8% 29:1 acrylamide gel, 4 C; protein in a lysate after overexpression; residues 1-746; label: 33P (Klenow end-fill)
[2] = biological target: STAT1alpha WT-GFP (human) (UniProt P42224); details: IFNg 45 min, less complex than E169A; 4.5 ul whole cell extract + 8.5 ul reaction buffer (composition not given) with 1 ng 33P probe, 5 min on ice (30 min before competition); 4.8% 29:1 acrylamide gel, 4 C; protein in a lysate after overexpression; residues 1-746; protein details: C-terminal GFP (pEGFP-N1); label: 33P (Klenow end-fill)
[3] = biological target: STAT1alpha E169A-GFP (human) (UniProt P42224); details: IFNg 45 min, more complex than WT, also after staurosporine; 4.5 ul whole cell extract + 8.5 ul reaction buffer (composition not given) with 1 ng 33P probe, 5 min on ice (30 min before competition); 4.8% 29:1 acrylamide gel, 4 C; protein in a lysate after overexpression; residues 1-746; protein details: C-terminal GFP (pEGFP-N1); label: 33P (Klenow end-fill)
[4] = biological target: STAT1alpha E169A untagged (human) (UniProt P42224); details: IFNg 45 min, more complex than WT; 4.5 ul whole cell extract + 8.5 ul reaction buffer (composition not given) with 1 ng 33P probe, 5 min on ice (30 min before competition); 4.8% 29:1 acrylamide gel, 4 C; protein in a lysate after overexpression; residues 1-746; label: 33P (Klenow end-fill)

Measured: binding result

CGACATTTCCCGTAAATCTG (double strand) [M67]
binds: [1] | [2] | [3] | [4]
